# Structures can show the parent of a compound that is named as a salt. The list shows a part of the results. Most entries show no effect beyond the scatter of the controls.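 Differential scanning fluorimetry gave melting temperatures in a one-replicate pilot screen of a library of approved drugs plus clinical or known-target compounds. Hits increasing melting point at least 2 °C were the strongest stabilizers, while negative shifts signify destabilization.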
# Test system: SARS-CoV-2 main protease (Mpro, nsp5)
# Assay: thermal shift ΔTm of Mpro relative to plate average Tm; higher = stronger thermal stabilization of Mpro (binding)
# Conditions: 10 µM; protein concentration 1 µM
row,SMILES,thermal shift ΔTm of Mpro
1,O=C(c1cc(Cc2n[nH]c(=O)c3ccccc23)ccc1F)N1CCN(C(=O)C2CC2)CC1,0.0562 °C
2,Cc1cc(SCc2sc(-c3ccc(C(F)(F)F)c(F)c3)nc2C)ccc1OCC(=O)O,-0.359 °C
3,CNc1nc(-c2ccc3c(N)n[nH]c3c2)cc(N2C[C@@H](C(=O)NC3CCCCC3)CC[C@H]2C)n1,-0.2 °C
4,COc1ccc(-c2coc3cc(O)ccc3c2=O)cc1 [Formononetin],0.363 °C
5,CN1CCN(S(=O)(=O)c2ccc(-c3cnc(N)c(C(=O)Nc4cccnc4)n3)cc2)CC1,0.0296 °C
6,Nc1ccc2ncnc(NCCc3ccc(Oc4ccccc4)cc3)c2c1,-0.0957 °C
7,Oc1c(Br)cc(Br)c2cccnc12 [Broxyquinoline],0.0141 °C
8,COc1cc2c(cc1OC)[C@@H](Cc1ccc(O)c(Oc3cc4c(cc3OC)CCN(C)[C@@H]4Cc3ccc(O)cc3)c1)N(C)CC2.[O-][Cl+3]([O-])([O-])O [Liensinine Perchlorate],-0.168 °C
9,O=C(OCCN1CCOCC1)C1(c2ccccc2)CCCCC1 [PRE-084 hydrochloride],-0.0283 °C
10,"Cc1ccc2c(c1)C(=O)C1(O)CCN(c3ccccc3)C1=N2 (single isomer, unassigned; (-)) [(-)-Blebbistatin]",-0.0107 °C
11,CC(CN1CC(=O)N(CN2CCOCC2)C(=O)C1)N1CC(=O)N(CN2CCOCC2)C(=O)C1 (stereo not given) [Probimane],0.314 °C
12,CNC(=O)c1cc(Oc2ccc(NC(=O)c3cccc(C(F)(F)F)c3)cc2)ccn1,0.0547 °C
13,CS(=O)(=O)c1ccc(C(=O)Nc2ccc(Cl)c(-c3ccccn3)c2)c(Cl)c1 [Vismodegib (GDC-0449)],0.0369 °C
14,O=C1C(c2c(O)[nH]c3ccccc23)=Nc2ccccc21 [Indirubin],-0.043 °C
15,COc1ccc(C(=O)CCC(=O)O)c2ccccc12 [Menbutone],0.472 °C
16,CC1(C)CCC(c2ccc(Cl)cc2)=C(CN2CCN(c3ccc(C(=O)NS(=O)(=O)c4ccc(N[C@H](CCN5CCOCC5)CSc5ccccc5)c(S(=O)(=O)C(F)(F)F)c4)cc3)CC2)C1 [ABT-263 (Navitoclax)],0.711 °C
17,O=C(COc1ccc(C(=O)c2ccccc2)cc1)NC1CCN(Cc2ccccc2)CC1 [AdipoRon],-0.26 °C
18,CNC[C@H](O)[C@@H](O)[C@H](O)[C@H](O)CO.CNC[C@H](O)[C@@H](O)[C@H](O)[C@H](O)CO.O=C([O-])CN(CCN(CC(=O)[O-])CC(=O)O)CCN(CC(=O)[O-])CC(=O)O.[Gd+3] [Gadopentetate dimeglumine],-0.0725 °C
19,Clc1ccccc1C(c1ccccc1)(c1ccccc1)n1cccn1,-0.0902 °C
20,O=C(N[C@H]1CN2CCC1CC2)c1cc2cccc(Cl)c2s1 [EVP-6124 hydrochloride],-0.159 °C
21,O=C(O[C@H]1[C@H](OC(=O)c2cccnc2)[C@@H](OC(=O)c2cccnc2)[C@H](OC(=O)c2cccnc2)[C@@H](OC(=O)c2cccnc2)[C@H]1OC(=O)c1cccnc1)c1cccnc1 [Inositol nicotinate],0.0921 °C
22,O=C(O[C@H]1C[N+]2(CCCOc3ccccc3)CCC1CC2)C(O)(c1cccs1)c1cccs1 [Aclidinium Bromide],-0.0272 °C
23,COc1cc(O)c2c(=O)cc(-c3ccc(OC)c(-c4c(O)cc(O)c5c(=O)cc(-c6ccc(O)cc6)oc45)c3)oc2c1 [Ginkgetin],0.17 °C

row,SMILES,thermal shift ΔTm of Mpro
1,O=C(NOCC1CC1)c1ccc(F)c(F)c1Nc1ccc(I)cc1Cl,0.153 °C
2,Nc1nc(F)nc2c1ncn2[C@@H]1O[C@H](COP(=O)(O)O)[C@@H](O)[C@@H]1O [Fludarabine Phosphate],-0.0153 °C
3,Clc1ccc(C(OCCN2CCCCC2)c2ccccc2)cc1 (stereo not given) [Cloperastine hydrochloride],0.0315 °C
4,CN1C/C=C/CCOc2cccc(c2)-c2ccnc(n2)Nc2cccc(c2)C1 [SB1317 hydrochloride],-0.157 °C
5,NC(=O)N[C@@H](CCC(=O)O)C(=O)O [Carbaglu],0.0918 °C
6,C(=N\NC1=NCCN1)/c1c2ccccc2c(/C=N/NC2=NCCN2)c2ccccc12 [Bisantrene],-0.0984 °C
7,COCCCC/C(=N\OCCN)c1ccc(C(F)(F)F)cc1 [Fluvoxamine maleate],0.353 °C
8,COC(=O)[C@H](c1ccccc1Cl)N1CCc2sccc2C1 (racemic) [(±) Clopidogrel hydrogen sulfate],-0.13 °C
9,COC(=O)[C@H](c1ccccc1Cl)N1CCc2sccc2C1 [Clopidogrel],0.145 °C
10,C[C@H](N[C@@H](CCc1ccccc1)C(=O)O)C(=O)N1CCC[C@H]1C(=O)O [Enalaprilat Dihydrate],0.0637 °C
11,CCN(CC)CCNC(=O)c1ccc(NS(C)(=O)=O)cc1 [Sematilide HCl],0.0513 °C
12,NC(=O)N1CCC(CC(=O)N2CCC([C@H]3c4ncc(Br)cc4CCc4cc(Cl)cc(Br)c43)CC2)CC1 [Lonafarnib],-0.666 °C
13,O=C(Nc1cccnn1)N1CCC(=Cc2cccc(Oc3ccc(C(F)(F)F)cn3)c2)CC1,-0.32 °C
14,O=C(Nc1cc(C(F)(F)F)cc(C(F)(F)F)c1)c1cc(Cl)ccc1O,1.11 °C
15,NC1(c2ccc(-c3nc4ccn5c(=O)[nH]nc5c4cc3-c3ccccc3)cc2)CCC1,-0.0669 °C
16,NC(=O)c1noc([C@H](CCCC2CCCCC2)CC(=O)NO)n1,-0.192 °C
17,CN1CCN(CCCNc2ncc(Cl)c(-c3cc4c(C(=O)NC5CC5)cccc4s3)n2)CC1,-0.171 °C
18,Cc1cccc(-c2[nH]c(C(C)(C)C)nc2-c2ccc3nccnc3c2)n1,0.309 °C
19,CC[C@H](C)n1cc(C)c2c(C(=O)NCc3c(C)cc(C)[nH]c3=O)cc(-c3ccc(N4CCNCC4)nc3)cc21,-0.21 °C
20,C/C=C(\C)C(=O)N[C@@H](c1ccccc1)[C@@H](O)C(=O)O[C@H]1C[C@@]2(O)[C@@H](OC(=O)c3ccccc3)[C@@H]3[C@]4(OC(C)=O)CO[C@@H]4C[C@H](O)[C@@]3(C)C(=O)[C@H](OC(C)=O)C(=C1C)C2(C)C [Cephalomannine],-0.093 °C
21,CC[C@@]1(O)C(=O)OCc2c1cc1n(c2=O)Cc2cc3cc(O)ccc3nc2-1 [(S)-10-Hydroxycamptothecin],-0.00492 °C
22,NS(=O)(=O)c1cc2c(cc1Cl)N=C(CSCc1ccccc1)NS2(=O)=O [Benzthiazide],-0.0618 °C

# Shown with tabs: entries from further up
row	SMILES	thermal shift ΔTm of Mpro
13	CS(=O)(=O)c1ccc(C(=O)Nc2ccc(Cl)c(-c3ccccn3)c2)c(Cl)c1 [Vismodegib (GDC-0449)]	0.0369 °C
14	O=C1C(c2c(O)[nH]c3ccccc23)=Nc2ccccc21 [Indirubin]	-0.043 °C
15	COc1ccc(C(=O)CCC(=O)O)c2ccccc12 [Menbutone]	0.472 °C
16	CC1(C)CCC(c2ccc(Cl)cc2)=C(CN2CCN(c3ccc(C(=O)NS(=O)(=O)c4ccc(N[C@H](CCN5CCOCC5)CSc5ccccc5)c(S(=O)(=O)C(F)(F)F)c4)cc3)CC2)C1 [ABT-263 (Navitoclax)]	0.711 °C
17	O=C(COc1ccc(C(=O)c2ccccc2)cc1)NC1CCN(Cc2ccccc2)CC1 [AdipoRon]	-0.26 °C
18	CNC[C@H](O)[C@@H](O)[C@H](O)[C@H](O)CO.CNC[C@H](O)[C@@H](O)[C@H](O)[C@H](O)CO.O=C([O-])CN(CCN(CC(=O)[O-])CC(=O)O)CCN(CC(=O)[O-])CC(=O)O.[Gd+3] [Gadopentetate dimeglumine]	-0.0725 °C
19	Clc1ccccc1C(c1ccccc1)(c1ccccc1)n1cccn1	-0.0902 °C
20	O=C(N[C@H]1CN2CCC1CC2)c1cc2cccc(Cl)c2s1 [EVP-6124 hydrochloride]	-0.159 °C
21	O=C(O[C@H]1[C@H](OC(=O)c2cccnc2)[C@@H](OC(=O)c2cccnc2)[C@H](OC(=O)c2cccnc2)[C@@H](OC(=O)c2cccnc2)[C@H]1OC(=O)c1cccnc1)c1cccnc1 [Inositol nicotinate]	0.0921 °C
22	O=C(O[C@H]1C[N+]2(CCCOc3ccccc3)CCC1CC2)C(O)(c1cccs1)c1cccs1 [Aclidinium Bromide]	-0.0272 °C

# Source: the supplement of paper PMC8166895
